PubChem BioAssay AID1259405 – NCATS – 2018

Purpose: 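Knock-downs that lift recombinant protein yield in hamster ovary cells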 (primary screen)
System: Chinese hamster CHO-K1 ovary cells with stable secreted eGFP expression
Reagent: single siRNA against mouse genes, 0.8 pmol siRNA per well (2 µl of 400 nM stock)
Time to read-out: 3 days
Measured: 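Per-well intracellular GFP measured by laser scanning cytometry, plus viability from ATP luminescence, each relative to plate median of non-targeting control wells, in %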
Direction: GFP, % of control: higher = more GFP per well, higher productivity; viability (ATP), % of control: higher = more viable cells (more ATP)
Call rule: 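Called active when intracellular GFP, relative to negative control, is at or above 120%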
Shown is an unselected part of about 50,000 reagents tested. Of all reagents, about 4,000 (8%) were called active. 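Mouse siRNA library applied to hamster cells; one well for each siRNA.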 Reagents against one gene are numbered here.

After knock-down of Bach2 #1 the results were GFP, % of control 82.8; viability (ATP), % of control 63.5; inactive.
With knock-down of Bach2 #2, the screen gave GFP, % of control 44.3; viability (ATP), % of control 84.1; inactive.
Knock-down of Bach2 #3 came out at: GFP, % of control 73.3; viability (ATP), % of control 93.2; inactive.
Against Pou4f3 #1, the values are GFP, % of control 86.3; viability (ATP), % of control 89; inactive.
With knock-down of Pou4f3 #2 the results were GFP, % of control 38.1; viability (ATP), % of control 46.7; inactive.
After knock-down of Pou4f3 #3, the record shows GFP, % of control 76.6; viability (ATP), % of control 83.2; inactive.
With knock-down of Pctp #1, the record shows GFP, % of control 114; viability (ATP), % of control 70.2; inactive.
Pctp #2 showed GFP, % of control 86.3; viability (ATP), % of control 65.5; inactive.
Silencing of Pctp #3 came out at: GFP, % of control 110; viability (ATP), % of control 78.8; inactive.
Prol1 #1 showed GFP, % of control 97; viability (ATP), % of control 81.1; inactive.
Prol1 #2 scored GFP, % of control 71.3; viability (ATP), % of control 72.4; inactive.
After knock-down of Prol1 #3, the screen gave GFP, % of control 91.5; viability (ATP), % of control 54.2; inactive.
Silencing of Cbx6 #1 gave: GFP, % of control 84.2; viability (ATP), % of control 88.3; inactive.
With knock-down of Cbx6 #2, the record shows GFP, % of control 87.3; viability (ATP), % of control 76.7; inactive.
Depletion of Cbx6 #3 resulted in: GFP, % of control 61.1; viability (ATP), % of control 63.4; inactive.
Aars2 #1 gave GFP, % of control 102; viability (ATP), % of control 94.3; inactive.
Aars2 #2 gave GFP, % of control 61.6; viability (ATP), % of control 67.6; inactive.
Against Aars2 #3, the entry reads GFP, % of control 66.5; viability (ATP), % of control 81.7; inactive.
Against Ndufb9 #1 the deposit lists GFP, % of control 63.2; viability (ATP), % of control 68.3; inactive.
After knock-down of Ndufb9 #2 the results were GFP, % of control 105; viability (ATP), % of control 95.7; inactive.
For Or13p3 #1 the deposit lists GFP, % of control 69.5; viability (ATP), % of control 58.9; inactive.
For Or13p3 #2, the values are GFP, % of control 44.4; viability (ATP), % of control 62; inactive.
After knock-down of Or13p3 #3 the results were GFP, % of control 192; viability (ATP), % of control 54; active.
For Bclaf3 #1 the deposit lists GFP, % of control 70.4; viability (ATP), % of control 77.4; inactive.
For Bclaf3 #2 the deposit lists GFP, % of control 30.6; viability (ATP), % of control 31.9; inactive.
Bclaf3 #3 scored GFP, % of control 65.1; viability (ATP), % of control 81.9; inactive.
With knock-down of Pramel13 #1, the screen gave GFP, % of control 228; viability (ATP), % of control 76.8; active.
Depletion of Pramel13 #2 resulted in: GFP, % of control 20.4; viability (ATP), % of control 33.9; inactive.
Silencing of Pramel13 #3 came out at: GFP, % of control 49.5; viability (ATP), % of control 68.9; inactive.
